# Test results reported in patent US20170176440A1, “METHODS AND COMPOSITIONS FOR EVALUATING BREAST CANCER PATIENTS” (THE BOARD OF REGENTS OF THE UNIVERSITY OF TEXAS SYSTEM, priority 2014, published 2017).
# Chains of the proteins cited; added tags and fusions are not shown.
# UniProt Q92731, whole entry: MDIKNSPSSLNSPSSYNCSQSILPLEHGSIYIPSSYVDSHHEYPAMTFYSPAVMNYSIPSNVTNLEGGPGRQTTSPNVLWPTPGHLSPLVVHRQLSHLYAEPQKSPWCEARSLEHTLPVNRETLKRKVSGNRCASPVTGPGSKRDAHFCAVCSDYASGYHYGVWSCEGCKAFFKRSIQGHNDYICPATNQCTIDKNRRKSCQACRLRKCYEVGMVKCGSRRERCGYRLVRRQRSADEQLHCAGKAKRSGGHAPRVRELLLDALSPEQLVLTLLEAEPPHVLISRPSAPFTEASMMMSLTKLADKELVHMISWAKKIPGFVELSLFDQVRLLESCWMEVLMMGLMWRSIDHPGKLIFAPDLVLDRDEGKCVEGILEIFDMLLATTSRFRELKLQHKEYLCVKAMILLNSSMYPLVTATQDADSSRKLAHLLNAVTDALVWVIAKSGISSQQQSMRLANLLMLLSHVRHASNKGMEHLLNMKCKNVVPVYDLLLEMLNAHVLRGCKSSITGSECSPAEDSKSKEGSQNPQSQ
# At least one structure is not confirmed: it was looked up by name or label, or the drawing left a doubt.
# Key:
# EYA2-ERβ interaction = molecular target: T1, EYA2-ERβ interaction (Homo sapiens, UniProt Q92731); test: GST-EYA2 pull-down with in vitro translated ERβ; format: binding; conditions: PPT 1 nM; DPN 10 nM
# T1 construct: made in house; the other protein was 35S-labelled and in vitro translated
# [1] = system: ERα/ERβ-mediated transcription in MCF7 cells; test: Real-time RT-PCR of ER target genes (pS2, MDA7) in MCF7 cells; format: cell-based
compound,measurement,setting,value
"CCCc1c(-c2ccc(O)cc2)nn(-c2ccc(O)cc2)c1-c1ccc(O)cc1 [PPT, propyl-pyrazole triol]",ERβ binding to EYA2 (GST pull-down),EYA2-ERβ interaction,did not have any effects
same,"transcription of MDA7, ERβ-specific target",[1],but not PPT activated transcription
same,"transcription of pS2, common target gene of ERα and ERβ",[1],stimulated transcription
